Out of some 53,000 sequences screened, about 3,700 (7%) were called active.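 Rule for the calls: active = gene knockdowns whose robust z-score for IL-1 alpha signal is at least 2 or at most -2, so actives lie on both sides; inactive = the rest.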 The list shows a part of the results.
test: Components of the Cytosolic LPS Sensing Pathway: Gene Identification via Genome-wide siRNA Screen; settings: RAW264.7 macrophages, IL-1a HTRF, actives lie on both sides, screened at 100 nM (by protocol), cells primed 5 h with Pam3CSK4 first;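 note: robust z of the log signal after scaling to non-targeting control siRNA wells of the plate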
Procedure, shortened: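 Supernatant IL-1a by HTRF from RAW264.7 cells primed with Pam3CSK4 (5 hours) and transfected with LipidA (24 hour) after 48h siRNA knockdown at 100 nM; cell viability checked with CellTiter-Glo.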

| Sequence | z-score |
| --- | --- |
| UCAUUGAGAAAGGAGAAGATT against Cox17 | inactive: -0.547 |
| CCUGUUAGCUGAAUUCAACTT against Entpd4 | inactive: 0.91 |
| CCCUCUGGUUCUAGCUGUUTT against Afap1 | inactive: 0.381 |
| GGUUUUCCAAAAAACACCCTT against 1700084J12Rik | inactive: 0.544 |
| GGCAACUGACUAGCUGAUUTT against Atp2a1 | inactive: -1.58 |
| GCAUAAAGAGGCCAUACCCTT against Zmiz1 | inactive: 0.743 |
| GGAAAAUCAAUACAUUGGATT against Pxk | inactive: -0.154 |
| CCUUUAGGUUACAAAAACCTT against Pdgfd | inactive: 0.216 |
| GGGCAUAUAUUCAAGACUUTT against Olfml1 | inactive: 1.35 |
| GGUUCAGGUUCUUCUAAAATT against Cd109 | inactive: 1.42 |
| CCUCGAAACUCAUUUCCAGTT against Prkch | inactive: -0.603 |
| GCCUGUACAUGACGGAAAGTT against Bag4 | inactive: 0.155 |
| GGCUUAGAUCUACUAUUUCTT against Fv4 | inactive: 0.0497 |
| CCCUGUUGAAGAGACGAGATT against Mrpl21 | inactive: -1.14 |
| GGUAAAUGUCUAGAAAUGGTT against Abcd2 | inactive: -0.269 |
| GGAUCCUCACAAUAAACUUTT against Sult2b1 | inactive: -0.0396 |
| GGCAUUAAUCCAGUCUUGGTT against A730049H05Rik | inactive: -1.46 |
| GCCAAGCAUUACCAUACUUTT against Rab21 | inactive: -1.73 |
| GGACCACCGUGAUCAACAUTT against Ifitm2 | inactive: 0.215 |
| GGACAAUGGGAGCUAUCGATT against Gpld1 | inactive: -1.73 |
| CCUAUACUUUUGGUCUUAGTT against Coa7 | inactive: -0.778 |
| GGAGGAGUGGAUGUGAUUATT against Dao | inactive: -0.27 |
| GGAGCUGUUUGACCAAAUCTT against Epb41l5 | inactive: 0.439 |
| CGACCUUUGAGACUGAAGATT against Septin8 | inactive: 0.625 |
| GGCUGGACACUGAGAAAAATT against Adcy4 | inactive: 1.63 |
| GGAUGACUUGUGAAUAUUUTT against Cd70 | inactive: -0.842 |
| CCCUUAUCUCAUGUGUUAATT against Olfr74 | inactive: -0.18 |
| GGCUAUGAAACAGUACAAUTT against Alyref | inactive: -1.01 |
| AUGAAUUUCUACUCGCCACTT against Pramel26 | inactive: 0.0656 |

An excerpt of these results, with tabs:
Sequence	z-score
GGAGCUGUUUGACCAAAUCTT against Epb41l5	inactive: 0.439
CCCUUAUCUCAUGUGUUAATT against Olfr74	inactive: -0.18

From PubChem BioAssay AID1508600 (Functional Genomics Laboratory (NCATS/FGL), 2020)
